Source: doi:10.1101/2024.01.29.577840
Where two headings read alike, the source gives them in different places. Results are given in words; binding and its absence hold for the method and conditions named. In cells and extracts the contact can be indirect. Some binding calls cover weakened binding; strength is not graded here. Sequences can lack the tags named with a protein.

Amino acid sequences for entries named in this document (tags omitted). A change or cut given only in a name is not applied to a line headed by its entry. Residues count along the entry.
UniProt P40337, whole entry, looked up, stated change not applied: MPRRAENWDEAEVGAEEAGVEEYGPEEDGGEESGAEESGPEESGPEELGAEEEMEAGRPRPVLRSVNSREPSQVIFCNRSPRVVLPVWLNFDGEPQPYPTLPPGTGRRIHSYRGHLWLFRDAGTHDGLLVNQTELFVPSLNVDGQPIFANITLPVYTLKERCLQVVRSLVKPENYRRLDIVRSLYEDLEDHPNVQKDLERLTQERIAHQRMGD
UniProt P40337, 1-113: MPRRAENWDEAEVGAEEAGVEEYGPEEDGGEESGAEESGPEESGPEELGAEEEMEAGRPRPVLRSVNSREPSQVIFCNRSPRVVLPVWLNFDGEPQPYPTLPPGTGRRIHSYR
UniProt P40337, 114-154: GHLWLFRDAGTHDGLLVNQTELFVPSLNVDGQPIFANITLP
UniProt P40337, 155-189: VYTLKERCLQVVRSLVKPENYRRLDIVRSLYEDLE

T1: 6Myc-FBXL5 (human) (UniProt Q9UKA1)
T1 sequence: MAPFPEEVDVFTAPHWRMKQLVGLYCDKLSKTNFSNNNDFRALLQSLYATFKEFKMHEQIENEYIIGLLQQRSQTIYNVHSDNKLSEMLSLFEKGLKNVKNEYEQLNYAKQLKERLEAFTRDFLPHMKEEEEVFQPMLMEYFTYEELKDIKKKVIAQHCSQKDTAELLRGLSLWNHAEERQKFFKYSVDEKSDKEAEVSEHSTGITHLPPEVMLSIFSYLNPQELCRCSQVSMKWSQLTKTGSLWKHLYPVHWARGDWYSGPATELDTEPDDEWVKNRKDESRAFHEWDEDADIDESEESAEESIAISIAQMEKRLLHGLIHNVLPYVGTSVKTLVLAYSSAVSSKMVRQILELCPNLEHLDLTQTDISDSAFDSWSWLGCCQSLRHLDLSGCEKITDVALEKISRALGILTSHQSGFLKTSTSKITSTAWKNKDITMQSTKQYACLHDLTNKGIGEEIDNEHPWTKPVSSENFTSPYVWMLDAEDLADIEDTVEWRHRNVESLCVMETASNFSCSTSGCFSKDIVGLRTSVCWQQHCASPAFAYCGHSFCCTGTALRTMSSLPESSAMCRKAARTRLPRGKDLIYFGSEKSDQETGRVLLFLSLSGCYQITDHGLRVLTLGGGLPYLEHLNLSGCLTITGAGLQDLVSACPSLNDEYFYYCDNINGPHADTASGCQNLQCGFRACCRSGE

T2: 3xHA-3xFLAG-FBXL5 (human) (UniProt Q9UKA1)
T2 sequence: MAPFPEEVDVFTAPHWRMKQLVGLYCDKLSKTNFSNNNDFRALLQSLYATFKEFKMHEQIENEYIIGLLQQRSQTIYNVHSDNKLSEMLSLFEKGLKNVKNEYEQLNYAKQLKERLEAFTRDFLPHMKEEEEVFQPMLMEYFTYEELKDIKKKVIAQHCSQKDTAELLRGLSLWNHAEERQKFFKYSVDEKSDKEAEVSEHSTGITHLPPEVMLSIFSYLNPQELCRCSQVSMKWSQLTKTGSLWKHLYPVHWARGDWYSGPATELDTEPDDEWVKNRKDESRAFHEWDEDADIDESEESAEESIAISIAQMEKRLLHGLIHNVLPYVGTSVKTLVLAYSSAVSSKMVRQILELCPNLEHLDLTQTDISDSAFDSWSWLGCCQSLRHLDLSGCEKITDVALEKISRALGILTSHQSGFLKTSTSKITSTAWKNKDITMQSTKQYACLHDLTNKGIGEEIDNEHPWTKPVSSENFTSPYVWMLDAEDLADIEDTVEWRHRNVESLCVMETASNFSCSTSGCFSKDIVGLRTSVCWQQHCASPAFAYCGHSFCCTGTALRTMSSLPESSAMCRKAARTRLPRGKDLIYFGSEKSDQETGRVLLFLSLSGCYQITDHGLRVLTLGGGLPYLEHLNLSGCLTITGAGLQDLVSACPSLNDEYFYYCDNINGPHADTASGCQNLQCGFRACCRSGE

T3: 3xHA-3xFLAG-FBXL5-4C>S (human) (UniProt Q9UKA1)
T3 sequence: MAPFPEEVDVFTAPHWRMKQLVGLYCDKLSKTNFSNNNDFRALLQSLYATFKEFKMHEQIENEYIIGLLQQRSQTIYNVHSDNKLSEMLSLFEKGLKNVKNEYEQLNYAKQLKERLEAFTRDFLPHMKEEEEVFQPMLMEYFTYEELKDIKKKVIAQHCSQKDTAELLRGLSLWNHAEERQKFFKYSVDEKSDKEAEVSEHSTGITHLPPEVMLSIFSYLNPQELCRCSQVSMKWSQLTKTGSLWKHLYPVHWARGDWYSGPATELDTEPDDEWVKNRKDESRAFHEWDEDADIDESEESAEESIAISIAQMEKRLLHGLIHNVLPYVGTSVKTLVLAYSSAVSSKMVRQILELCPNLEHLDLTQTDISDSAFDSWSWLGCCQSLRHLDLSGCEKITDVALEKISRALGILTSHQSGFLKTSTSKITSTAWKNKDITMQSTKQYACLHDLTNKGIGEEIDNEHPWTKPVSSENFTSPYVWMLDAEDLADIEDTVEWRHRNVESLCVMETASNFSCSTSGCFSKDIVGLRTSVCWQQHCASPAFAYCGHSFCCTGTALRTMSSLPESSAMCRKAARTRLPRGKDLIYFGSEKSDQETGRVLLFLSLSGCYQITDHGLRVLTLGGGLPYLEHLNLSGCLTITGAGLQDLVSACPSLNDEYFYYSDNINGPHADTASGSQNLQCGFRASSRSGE


Legend:
Assay in all cases: co-IP
6Myc-FBXL5 (human) [1] = biological target: T1, 6Myc-FBXL5 (human)
6Myc-FBXL5 (human) [2] = biological target: T1, 6Myc-FBXL5 (human); remark: listed apart in the source
[3] = biological target: T2, 3xHA-3xFLAG-FBXL5 (human)
[4] = biological target: T3, 3xHA-3xFLAG-FBXL5-4C>S (human)

| Molecule | binding (6Myc-FBXL5 (human) [1]) | binding (6Myc-FBXL5 (human) [2]) | further results |
| --- | --- | --- | --- |
| YFP-VHL-1-113 (from UniProt P40337 1-113) (domain or fragment) | no binding | – | – |
| VHL with deletion of 98-154 amino acids (from UniProt P40337 1-213) | – | binds | – |
| YFP-VHL-Δ114-170 (from UniProt P40337 1-213) | no binding | – | – |
| YFP-VHL-114-154 (from UniProt P40337 114-154) (domain or fragment) | binds | – | – |
| YFP-VHL-Δ114-162 (from UniProt P40337 1-213) | binds | – | – |
| YFP-VHL-Δ98-170 (from UniProt P40337 1-213) | – | – | binding [3]: no binding |
| 6Myc-IRP2 (protein, UniProt P48200 1-963) MDAPKAGYAFEYLIETLNDSSHKKFFDVSKLGTKYDVLPYSIRVLLEAAVRNCDGFLMKKEDVMNILDWKTKQSNVEVPFFPARVLLQDFTGIPAMVDFAAMREAVKTLGGDPEKVHPACPTDLTVDHSLQIDFSKCAIQNAPNPGGGDLQKAGKLSPLKVQPKKLPCRGQTTCRGSCDSGELGRNSGTFSSQIENTPILCPFHLQPVPEPETVLKNQEVEFGRNRERLQFFKWSSRVFKNVAVIPPGTGMAHQINLEYLSRVVFEEKDLLFPDSVVGTDSHITMVNGLGILGWGVGGIETEAVMLGLPVSLTLPEVVGCELTGSSNPFVTSIDVVLGITKHLRQVGVAGKFVEFFGSGVSQLSIVDRTTIANMCPEYGAILSFFPVDNVTLKHLEHTGFSKAKLESMETYLKAVKLFRNDQNSSGEPEYSQVIQINLNSIVPSVSGPKRPQDRVAVTDMKSDFQACLNEKVGFKGFQIAAEKQKDIVSIHYEGSEYKLSHGSVVIAAVISCTNNCNPSVMLAAGLLAKKAVEAGLRVKPYIRTSLSPGSGMVTHYLSSSGVLPYLSKLGFEIVGYGCSICVGNTAPLSDAVLNAVKQGDLVTCGILSGNKNFEGRLCDCVRANYLASPPLVVAYAIAGTVNIDFQTEPLGTDPTGKNIYLHDIWPSREEVHRVEEEHVILSMFKALKDKIEMGNKRWNSLEAPDSVLFPWDLKSTYIRCPSFFDKLTKEPIALQAIENAHVLLYLGDSVTTDHISPAGSIARNSAAAKYLTNRGLTPREFNSYGARRGNDAVMTRGTFANIKLFNKFIGKPAPKTIHFPSGQTLDVFEAAELYQKEGIPLIILAGKKYGSGNSRDWAAKGPYLLGVKAVLAESYEKIHKDHLIGIGIAPLQFLPGENADSLGLSGRETFSLTFPEELSPGITLNIQTSTGKVFSVIASFEDDVEITLYKHGGLLNFVARKFS | – | – | binding [4]: no binding |

Further lines, with some results ahead:

| binding (6Myc-FBXL5 (human) [1]) | binding (6Myc-FBXL5 (human) [2]) | Molecule | further results |
| --- | --- | --- | --- |
| binds | – | YFP-VHL-Δ134-170 (from UniProt P40337 1-213) | – |
| binds | – | YFP-VHL-155-189 (from UniProt P40337 155-189) (domain or fragment) | – |
| – | binds | pVHL213 with deletion of the ElonginBC binding box (157-172 amino acids) (from UniProt P40337 1-213) | – |
| – | binds | pVHL172 with deletion of the ElonginBC binding box (157-172 amino acids) (from UniProt P40337 1-213) | – |
| binds | binds | YFP-VHL-172 (from UniProt P40337-2 1-172) | – |
